Measured data: PubChem BioAssay AID504804 (Drosophila RNAi Screening Center, 2011)

- Screen: 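Knock-downs shielding fly cells from apoptosis caused by DNA damage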 (primary screen)
- Cell system: Drosophila Kc cells
- Reagent: long dsRNA against Drosophila genes, 0.5 µg dsRNA per well
- Time to read-out: 96 h (48 h knock-down, then 48 h drug)
- Challenge: doxorubicin 5 µg/ml for 48 h, added 48 h after dsRNA
- Measured: 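Luminescent ATP counts per replicate, not normalised, reflecting viable cells after 48 h dsRNA knock-down followed by 48 h of 5 µg/ml doxorubicin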
- Direction: raw ATP luminescence: higher = more viable cells, protection from doxorubicin
- Rule for the call: 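Active when both duplicate wells lie at least 2 SD above the plate mean and protection is confirmed by rescreening and independent dsRNAs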
The screen tested about 19,000 reagents; this is an unselected part of those with a known target gene and a result. Over the whole deposit, 47 (0.25%) are marked active. 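Signals are raw, not normalised; exact z-scores behind calls not deposited; actives needed confirmation, so some wells reaching 2 SD are inactive.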 Entries without a mark were called inactive. The numbers tell different reagents against one gene apart. A plus sign joins genes that one reagent is predicted to hit.

gene | reagent | raw ATP luminescence, replicate 1 | raw ATP luminescence, replicate 2
Tsp42A | 1 | 41317 | 42113
CG11211 | 1 | 36410 | 49757
CG15456 | 1 | 4.65e5 | 3.35e5
Wdr81 | 1 | 74167 | 58393
park | 1 | 18790 | 20020
Mnt | 1 | 36580 | 47680
Tsp42Ej | 1 | 62820 | 73870
fy | 1 | 41390 | 78017
Taf12 | 1 | 58047 | 28500
fd3F (retired record) | 1 | 18240 | 17300
Fdx1 | 1 | 88553 | 89643
CG13516 | 1 | 62803 | 52753
CG32054 | 1 | 49507 | 70367
CG34202 | 1 | 64273 | 41267
Argp | 1 | 66590 | 89620
dock | 1 | 1.30e5 | 59177
CG8635 | 1 | 56983 | 61340
CG5167 | 1 | 55463 | 60163
Hr39 | 1 | 69873 | 69123
CG18585 | 1 | 1.02e5 | 77457
CG31601 | 1 | 81677 | 87620
Desi | 1 | 64663 | 67567
CG9692 | 1 | 82113 | 70630
CG14411 | 1 | 3.20e5 | 2.86e5
CG34305 | 1 | 59477 | 71960
Ir7a | 1 | 44000 | 42730
MICU3 | 1 | 2.02e5 | 1.92e5
MICU3 | 2 | 42720 | 38103
CG32454 | 1 | 47643 | 35477
tRNA:Leu-CAA-2-3 | 1 | 2.18e5 | 2.00e5
CG14246 | 1 | 61350 | 72210
GluRIID | 1 | 61880 | 65650
Np | 1 | 30853 | 65627
Np | 2 | 38443 | 71720
CG34263 | 1 | 1.59e5 | 1.73e5
Iru | 1 | 84450 | 29293
Cyp4d21 | 1 | 1.11e5 | 70527
CG18746 | 1 | 67080 | 54107
CG1671 | 1 | 62830 | 55793
CG14573 | 1 | 68753 | 62603
CG12641 (retired record) | 1 | 1.70e5 | 2.17e5
Irc | 1 | 53083 | 45443
CG15201 | 1 | 3.81e5 | 3.74e5

Records above whose target name starts with F or f:
gene | reagent | raw ATP luminescence, replicate 1 | raw ATP luminescence, replicate 2
fy | 1 | 41390 | 78017
fd3F (retired record) | 1 | 18240 | 17300
Fdx1 | 1 | 88553 | 89643

The list goes on:
gene | reagent | raw ATP luminescence, replicate 1 | raw ATP luminescence, replicate 2
oys | 1 | 94467 | 83110
oys | 2 | 63537 | 51433
CG3408 | 1 | 97087 | 80713
upd3 | 1 | 3.58e5 | 3.43e5
upd3 | 2 | 4.01e5 | 3.37e5
CheA75a | 1 | 45203 | 35220
GstD9 | 1 | 57380 | 49817
eIF4E4 | 1 | 67707 | 72437
Tsp3A | 1 | 52140 | 63230
CG5377 | 1 | 78390 | 63410
CG12519 | 1 | 62560 | 64113
pea | 1 | 68013 | 57263
CG9316 | 1 | 70453 | 66387
CG15464 (retired record) | 1 | 46080 | 45560
CG14416 | 1 | 45100 | 53500
Bka | 1 | 30030 | 49277
Pdxk | 1 | 82863 | 68463
CG14448 | 1 | 61640 | 53800
pros | 1 | 2.07e5 | 2.15e5
pros | 2 | 44473 | 25597
CG11883 | 1 | 53453 | 56107
Drgx | 1 | 23620 | 30693
Drgx | 2 | 21453 | 26240
CG31997 | 1 | 2.73e5 | 2.41e5
thr | 1 | 56360 | 69103
Syt12 | 1 | 3.72e5 | 3.35e5
SMC1 | 1 | 71220 | 62320
rn | 1 | 24477 | 19510
rn | 2 | 44210 | 56957
rn | 3 | 58080 | 47167
rn | 4 | 66363 | 53977
CG15611 | 1 | 54570 | 64550
CG32603 | 1 | 3.69e5 | 3.39e5
CG32511 (retired record) | 1 | 1.96e5 | 2.13e5
Elp6 | 1 | 51443 | 24603
grn | 1 | 58627 | 19070
grn | 2 | 70820 | 72607
elm | 1 | 63917 | 47880
Npc2e | 1 | 62730 | 55373
mrt | 1 | 51350 | 44350
CG14610 + asRNA:CR42738 | 1 | 58890 | 58360
